Results reported in the supplement of paper PMC6411743.
± gives the standard deviation of the averaged measurements. The entries are a selection whose mix differs from that of the whole data set.

Sequences of proteins named here, by UniProt entry; tags and fusion partners are left off. A change or cut given only in a name is not applied to a line headed by its entry.
UniProt Q96KA5: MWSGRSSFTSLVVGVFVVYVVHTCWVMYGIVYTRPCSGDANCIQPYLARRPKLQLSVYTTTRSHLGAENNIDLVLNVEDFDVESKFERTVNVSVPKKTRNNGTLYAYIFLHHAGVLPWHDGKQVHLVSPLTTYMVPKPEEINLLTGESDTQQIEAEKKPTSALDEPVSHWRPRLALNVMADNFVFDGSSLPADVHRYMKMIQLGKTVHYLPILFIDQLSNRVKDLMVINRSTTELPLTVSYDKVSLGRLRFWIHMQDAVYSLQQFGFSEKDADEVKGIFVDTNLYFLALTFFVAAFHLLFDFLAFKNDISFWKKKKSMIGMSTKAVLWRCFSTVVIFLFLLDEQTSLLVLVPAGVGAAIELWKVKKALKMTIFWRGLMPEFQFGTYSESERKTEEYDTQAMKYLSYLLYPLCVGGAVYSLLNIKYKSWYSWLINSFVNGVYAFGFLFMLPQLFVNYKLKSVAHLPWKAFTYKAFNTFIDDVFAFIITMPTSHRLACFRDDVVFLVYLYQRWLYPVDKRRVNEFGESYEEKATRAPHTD
UniProt Q96RP9: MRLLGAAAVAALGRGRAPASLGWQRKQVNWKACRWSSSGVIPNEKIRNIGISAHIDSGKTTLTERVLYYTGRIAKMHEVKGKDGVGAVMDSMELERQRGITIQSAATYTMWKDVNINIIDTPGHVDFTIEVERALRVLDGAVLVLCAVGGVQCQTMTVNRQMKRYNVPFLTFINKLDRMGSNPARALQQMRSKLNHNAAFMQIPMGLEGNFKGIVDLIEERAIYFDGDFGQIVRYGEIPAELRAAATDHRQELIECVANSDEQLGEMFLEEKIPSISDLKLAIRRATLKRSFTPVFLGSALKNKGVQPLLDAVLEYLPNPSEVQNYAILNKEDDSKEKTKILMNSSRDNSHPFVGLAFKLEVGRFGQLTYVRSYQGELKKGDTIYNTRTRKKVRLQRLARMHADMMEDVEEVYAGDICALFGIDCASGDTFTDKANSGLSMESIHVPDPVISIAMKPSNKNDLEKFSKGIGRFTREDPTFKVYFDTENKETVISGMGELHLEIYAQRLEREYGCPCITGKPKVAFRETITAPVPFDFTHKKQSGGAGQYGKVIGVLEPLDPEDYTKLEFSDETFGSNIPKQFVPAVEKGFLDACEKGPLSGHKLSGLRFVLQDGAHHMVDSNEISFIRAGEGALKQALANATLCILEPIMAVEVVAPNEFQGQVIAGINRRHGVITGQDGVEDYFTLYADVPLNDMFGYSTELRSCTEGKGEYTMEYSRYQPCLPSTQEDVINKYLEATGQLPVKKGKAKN
UniProt Q96MX6, whole entry: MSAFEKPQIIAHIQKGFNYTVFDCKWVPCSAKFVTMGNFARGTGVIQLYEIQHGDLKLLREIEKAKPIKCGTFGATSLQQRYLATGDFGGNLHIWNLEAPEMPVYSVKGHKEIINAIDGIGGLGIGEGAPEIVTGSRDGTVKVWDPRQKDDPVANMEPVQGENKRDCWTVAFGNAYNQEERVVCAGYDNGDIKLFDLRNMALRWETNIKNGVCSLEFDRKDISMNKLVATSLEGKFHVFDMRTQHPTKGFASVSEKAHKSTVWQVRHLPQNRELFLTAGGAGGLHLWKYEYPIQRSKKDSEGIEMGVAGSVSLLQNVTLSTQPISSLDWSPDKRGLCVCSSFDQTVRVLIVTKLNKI
UniProt Q96SB3: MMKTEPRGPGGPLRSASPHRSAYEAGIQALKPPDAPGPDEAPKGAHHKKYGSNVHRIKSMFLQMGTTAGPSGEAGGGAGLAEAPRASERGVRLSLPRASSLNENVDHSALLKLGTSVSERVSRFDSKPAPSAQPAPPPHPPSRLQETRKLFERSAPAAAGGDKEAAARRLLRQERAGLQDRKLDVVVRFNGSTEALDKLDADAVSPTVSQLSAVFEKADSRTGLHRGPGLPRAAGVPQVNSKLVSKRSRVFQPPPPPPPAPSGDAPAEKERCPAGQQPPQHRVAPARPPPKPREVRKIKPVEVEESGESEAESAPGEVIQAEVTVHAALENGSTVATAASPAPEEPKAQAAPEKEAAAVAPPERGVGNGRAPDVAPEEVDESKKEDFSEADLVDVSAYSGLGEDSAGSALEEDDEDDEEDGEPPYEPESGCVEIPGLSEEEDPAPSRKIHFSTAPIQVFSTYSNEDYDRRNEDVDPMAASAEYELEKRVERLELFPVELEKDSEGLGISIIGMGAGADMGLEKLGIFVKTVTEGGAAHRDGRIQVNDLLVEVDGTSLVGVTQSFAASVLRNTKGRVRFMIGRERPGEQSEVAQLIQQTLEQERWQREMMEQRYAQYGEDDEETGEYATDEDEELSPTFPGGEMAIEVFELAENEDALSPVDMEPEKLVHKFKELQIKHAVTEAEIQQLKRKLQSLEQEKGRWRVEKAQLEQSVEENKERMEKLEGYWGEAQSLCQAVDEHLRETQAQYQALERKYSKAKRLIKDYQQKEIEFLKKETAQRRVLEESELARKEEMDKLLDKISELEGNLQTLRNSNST
UniProt Q96FF9: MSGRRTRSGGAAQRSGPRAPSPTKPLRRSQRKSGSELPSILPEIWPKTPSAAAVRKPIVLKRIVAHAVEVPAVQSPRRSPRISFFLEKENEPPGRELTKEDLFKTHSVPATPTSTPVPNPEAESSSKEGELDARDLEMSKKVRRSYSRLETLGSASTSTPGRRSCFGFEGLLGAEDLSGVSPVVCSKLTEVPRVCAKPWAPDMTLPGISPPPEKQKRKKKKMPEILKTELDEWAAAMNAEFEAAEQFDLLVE
UniProt Q96K80: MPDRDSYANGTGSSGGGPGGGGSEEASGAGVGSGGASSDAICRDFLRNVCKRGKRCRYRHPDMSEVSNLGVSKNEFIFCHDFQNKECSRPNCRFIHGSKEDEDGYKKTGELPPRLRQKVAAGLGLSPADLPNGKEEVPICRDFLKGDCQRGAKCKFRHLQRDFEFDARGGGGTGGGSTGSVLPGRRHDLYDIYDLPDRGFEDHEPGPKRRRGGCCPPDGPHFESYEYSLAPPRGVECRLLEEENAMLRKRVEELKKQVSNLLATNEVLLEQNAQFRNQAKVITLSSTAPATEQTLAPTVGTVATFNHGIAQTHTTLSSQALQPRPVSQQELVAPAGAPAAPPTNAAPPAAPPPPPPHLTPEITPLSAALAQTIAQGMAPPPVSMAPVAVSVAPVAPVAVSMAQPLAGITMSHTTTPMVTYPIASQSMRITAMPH
UniProt Q96QC0: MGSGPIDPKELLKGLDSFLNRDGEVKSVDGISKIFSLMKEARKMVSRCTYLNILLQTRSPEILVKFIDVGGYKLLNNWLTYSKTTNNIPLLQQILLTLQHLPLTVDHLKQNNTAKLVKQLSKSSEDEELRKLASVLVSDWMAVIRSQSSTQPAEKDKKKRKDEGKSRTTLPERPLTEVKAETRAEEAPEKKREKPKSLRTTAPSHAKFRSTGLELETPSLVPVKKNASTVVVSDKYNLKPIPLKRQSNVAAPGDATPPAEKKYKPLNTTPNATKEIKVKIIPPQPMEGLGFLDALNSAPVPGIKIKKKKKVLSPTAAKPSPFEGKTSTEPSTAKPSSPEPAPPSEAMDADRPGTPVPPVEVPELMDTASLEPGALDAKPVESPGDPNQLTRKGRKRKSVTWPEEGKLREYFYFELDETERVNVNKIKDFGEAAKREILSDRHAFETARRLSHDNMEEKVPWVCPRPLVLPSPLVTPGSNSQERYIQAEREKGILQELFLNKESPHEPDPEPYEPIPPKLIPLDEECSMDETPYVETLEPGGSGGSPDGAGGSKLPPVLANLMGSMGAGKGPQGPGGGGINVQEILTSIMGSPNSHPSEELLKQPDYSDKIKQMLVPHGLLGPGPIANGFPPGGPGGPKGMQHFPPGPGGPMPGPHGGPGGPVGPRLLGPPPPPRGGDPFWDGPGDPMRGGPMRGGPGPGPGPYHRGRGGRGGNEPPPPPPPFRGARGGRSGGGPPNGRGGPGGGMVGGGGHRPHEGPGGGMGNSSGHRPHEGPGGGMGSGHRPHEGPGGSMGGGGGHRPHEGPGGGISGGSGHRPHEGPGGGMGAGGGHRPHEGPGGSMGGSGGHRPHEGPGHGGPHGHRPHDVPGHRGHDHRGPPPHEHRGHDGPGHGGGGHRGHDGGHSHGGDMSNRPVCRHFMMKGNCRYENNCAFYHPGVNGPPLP
UniProt Q96EY8: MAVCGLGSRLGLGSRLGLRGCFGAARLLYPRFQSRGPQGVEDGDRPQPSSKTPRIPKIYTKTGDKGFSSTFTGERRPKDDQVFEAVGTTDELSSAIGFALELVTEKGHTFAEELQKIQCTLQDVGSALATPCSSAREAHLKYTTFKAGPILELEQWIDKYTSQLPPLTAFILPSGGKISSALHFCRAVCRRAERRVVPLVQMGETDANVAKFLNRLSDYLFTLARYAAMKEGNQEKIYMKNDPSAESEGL
UniProt Q96EA4: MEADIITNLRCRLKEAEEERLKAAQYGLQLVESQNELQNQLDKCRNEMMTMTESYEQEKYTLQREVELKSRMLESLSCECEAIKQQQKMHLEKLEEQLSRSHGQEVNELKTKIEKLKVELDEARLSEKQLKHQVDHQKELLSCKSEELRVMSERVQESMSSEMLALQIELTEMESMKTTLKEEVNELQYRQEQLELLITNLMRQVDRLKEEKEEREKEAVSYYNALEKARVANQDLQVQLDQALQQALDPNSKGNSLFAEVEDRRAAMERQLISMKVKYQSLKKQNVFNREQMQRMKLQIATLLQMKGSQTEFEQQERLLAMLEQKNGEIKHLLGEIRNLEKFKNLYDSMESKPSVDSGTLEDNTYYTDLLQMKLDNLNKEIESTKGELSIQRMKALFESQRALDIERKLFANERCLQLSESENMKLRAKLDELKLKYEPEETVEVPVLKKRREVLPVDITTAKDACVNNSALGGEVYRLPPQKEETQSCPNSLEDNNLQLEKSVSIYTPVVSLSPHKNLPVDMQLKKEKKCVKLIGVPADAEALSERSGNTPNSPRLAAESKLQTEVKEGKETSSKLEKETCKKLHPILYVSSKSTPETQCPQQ
UniProt Q96IG2: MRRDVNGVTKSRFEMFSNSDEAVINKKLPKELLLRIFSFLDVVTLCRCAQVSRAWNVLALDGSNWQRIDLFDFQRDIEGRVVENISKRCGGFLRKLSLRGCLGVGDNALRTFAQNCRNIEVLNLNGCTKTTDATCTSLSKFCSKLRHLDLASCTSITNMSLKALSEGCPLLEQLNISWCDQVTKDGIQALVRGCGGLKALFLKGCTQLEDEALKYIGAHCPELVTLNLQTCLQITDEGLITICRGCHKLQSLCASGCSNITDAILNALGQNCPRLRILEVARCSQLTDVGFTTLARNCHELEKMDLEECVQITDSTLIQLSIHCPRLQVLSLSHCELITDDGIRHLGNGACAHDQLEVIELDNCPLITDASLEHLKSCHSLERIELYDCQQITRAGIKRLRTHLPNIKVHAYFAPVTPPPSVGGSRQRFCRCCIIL
UniProt Q96CX2: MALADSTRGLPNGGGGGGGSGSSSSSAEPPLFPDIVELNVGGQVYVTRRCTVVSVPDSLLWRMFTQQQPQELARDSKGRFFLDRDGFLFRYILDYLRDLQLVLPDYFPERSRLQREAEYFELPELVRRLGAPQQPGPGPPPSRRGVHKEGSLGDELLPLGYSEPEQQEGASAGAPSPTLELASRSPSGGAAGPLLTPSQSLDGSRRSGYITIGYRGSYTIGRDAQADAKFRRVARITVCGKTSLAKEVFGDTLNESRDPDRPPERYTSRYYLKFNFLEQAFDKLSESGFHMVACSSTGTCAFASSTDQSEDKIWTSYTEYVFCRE
UniProt Q96GW9: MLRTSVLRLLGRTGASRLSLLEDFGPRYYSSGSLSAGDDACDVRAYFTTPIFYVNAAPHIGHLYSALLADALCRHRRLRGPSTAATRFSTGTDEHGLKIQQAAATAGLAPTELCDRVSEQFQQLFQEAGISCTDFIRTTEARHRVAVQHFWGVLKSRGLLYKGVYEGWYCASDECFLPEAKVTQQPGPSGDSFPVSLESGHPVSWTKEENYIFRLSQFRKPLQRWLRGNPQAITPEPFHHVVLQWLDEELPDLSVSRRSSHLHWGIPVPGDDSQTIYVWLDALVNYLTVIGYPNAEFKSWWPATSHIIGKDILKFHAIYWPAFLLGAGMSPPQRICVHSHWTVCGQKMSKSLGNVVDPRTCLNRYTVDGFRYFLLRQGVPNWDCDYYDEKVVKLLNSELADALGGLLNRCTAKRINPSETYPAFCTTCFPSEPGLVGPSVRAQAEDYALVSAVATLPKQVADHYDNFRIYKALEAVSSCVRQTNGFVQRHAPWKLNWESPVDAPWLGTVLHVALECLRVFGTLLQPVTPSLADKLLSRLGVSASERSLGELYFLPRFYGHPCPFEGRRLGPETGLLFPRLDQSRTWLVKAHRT
UniProt Q96HQ2: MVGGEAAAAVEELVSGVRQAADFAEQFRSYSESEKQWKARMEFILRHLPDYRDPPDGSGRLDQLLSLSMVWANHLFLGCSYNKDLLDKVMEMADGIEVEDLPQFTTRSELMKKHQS

Compound: Nc1ncnc2c1ncn2[C@@H]1O[C@H](COP(=O)(O)OP(=O)(O)OP(=O)(O)O)[C@@H](O)[C@H]1O [adenosine triphosphate]
Assay: NP40-soluble protein abundance relative to vehicle (solubility fold change) (ratio); higher = more soluble protein in presence of ATP
Procedure, shortened: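 Jurkat crude lysate prepared with a Dounce homogeniser was treated at eight concentrations spanning 0.1 to 10 mM, 10 min at room temperature then 3 min at 37 °C. Solubilisation with 0.8% NP40 and benzonase and ultracentrifugation preceded TMT labelling of the supernatant for LC-MS/MS. Fold change against the detergent-processed vehicle was determined per replicate from vsn-normalised intensities, across three independent experiments.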

Row | Target | NP40-soluble protein abundance (concentration: 1mM) | NP40-soluble protein abundance (concentration: 2mM) | NP40-soluble protein abundance (concentration: 4mM) | NP40-soluble protein abundance (concentration: 6mM) | NP40-soluble protein abundance (concentration: 8mM) | NP40-soluble protein abundance (concentration: 10mM)
1 | TUBGCP3 (UniProt Q96CW5) | 1.08 ± 0.08 | 1.02 ± 0.077 | 1.06 ± 0.079 | 1.03 ± 0.17 | 1.13 ± 0.14 | 1.13 ± 0.15
2 | UniProt Q96KA5 and related entries | 0.996 ± 0.075 | 0.967 ± 0.038 | 0.979 ± 0.034 | 0.939 ± 0.068 | 0.964 ± 0.028 | 0.98 ± 0.035
3 | UniProt Q96RP9 and related entries | 1.01 ± 0.023 | 0.986 ± 0.05 | 0.97 ± 0.04 | 0.971 ± 0.076 | 0.972 ± 0.012 | 0.962 ± 0.032
4 | WDR92 (UniProt Q96MX6) | 1.03 ± 0.087 | 1.03 ± 0.054 | 1.01 ± 0.056 | 0.973 ± 0.039 | 1.03 ± 0.088 | 1.06 ± 0.093
5 | UniProt Q96SB3 and related entries | 0.917 ± 0.12 | 0.931 ± 0.088 | 1.05 ± 0.069 | 1.19 ± 0.029 | 1.19 ± 0.12 | 1.39 ± 0.15
6 | UniProt Q96P16 and related entries | 0.995 ± 0.056 | 1.02 ± 0.015 | 1.03 ± 0.015 | 1.046 ± 0.0049 | 1.02 ± 0.028 | 0.982 ± 0.063
7 | PPWD1 (UniProt Q96BP3) | 1.01 ± 0.074 | 1.03 ± 0.068 | 1.04 ± 0.068 | 1.04 ± 0.07 | 1.14 ± 0.056 | 1.16 ± 0.064
8 | PIGS (UniProt Q96S52) | 1.02 ± 0.12 | 1.02 ± 0.043 | 0.997 ± 0.076 | 0.945 ± 0.098 | 1.02 ± 0.022 | 1.03 ± 0.037
9 | LENG1 (UniProt Q96BZ8) | 0.922 ± 0.056 | 0.98 ± 0.094 | 1.13 ± 0.085 | 1.24 ± 0.053 | 1.29 ± 0.23 | 1.17 ± 0.44
10 | CDCA5 (UniProt Q96FF9) | 1.1 ± 0.098 | 1.06 ± 0.056 | 1.06 ± 0.029 | 1.07 ± 0.11 | 1.04 ± 0.052 | 1.05 ± 0.044
11 | AJUBA (UniProt Q96IF1) | 1.02 ± 0.019 | 0.982 ± 0.024 | 1.02 ± 0.17 | 0.993 ± 0.04 | 1.05 ± 0.033 | 1.02 ± 0.1
12 | SNF8 (UniProt Q96H20) | 1 ± 0.045 | 0.999 ± 0.029 | 1.03 ± 0.037 | 0.971 ± 0.033 | 1 ± 0.054 | 0.935 ± 0.068
13 | UniProt Q96S97 and related entries | 1.06 ± 0.074 | 1.05 ± 0.02 | 1.01 ± 0.075 | 0.944 ± 0.042 | 1.02 ± 0.016 | 1.05 ± 0.034
14 | CCDC43 (UniProt Q96MW1) | 0.902 ± 0.089 | 0.911 ± 0.013 | 0.919 ± 0.046 | 0.944 ± 0.047 | 0.937 ± 0.029 | 0.866 ± 0.062
15 | SLC7A6OS (UniProt Q96CW6) | 0.937 ± 0.07 | 0.96 ± 0.023 | 0.988 ± 0.046 | 0.976 ± 0.075 | 0.925 ± 0.046 | 0.944 ± 0.072
16 | UniProt Q96DC7 and related entries | 0.961 ± 0.11 | 1.03 ± 0.13 | 1.02 ± 0.14 | 1.02 ± 0.097 | 0.937 ± 0.069 | 1 ± 0.034
17 | UniProt Q96DF8 | 0.939 ± 0.091 | 0.982 ± 0.078 | 0.984 ± 0.09 | 1 ± 0.1 | 0.988 ± 0.054 | 1.01 ± 0.068
18 | ZC3H10 (UniProt Q96K80) | 1.01 ± 0.037 | 1.03 ± 0.021 | 1.02 ± 0.11 | 1.11 ± 0.12 | 0.885 ± 0.086 | 0.951 ± 0.063

Quoted at random: 3 records from the list.
Row | Target | NP40-soluble protein abundance (concentration: 1mM) | NP40-soluble protein abundance (concentration: 2mM) | NP40-soluble protein abundance (concentration: 4mM) | NP40-soluble protein abundance (concentration: 6mM) | NP40-soluble protein abundance (concentration: 8mM) | NP40-soluble protein abundance (concentration: 10mM)
9 | LENG1 (UniProt Q96BZ8) | 0.922 ± 0.056 | 0.98 ± 0.094 | 1.13 ± 0.085 | 1.24 ± 0.053 | 1.29 ± 0.23 | 1.17 ± 0.44
8 | PIGS (UniProt Q96S52) | 1.02 ± 0.12 | 1.02 ± 0.043 | 0.997 ± 0.076 | 0.945 ± 0.098 | 1.02 ± 0.022 | 1.03 ± 0.037
17 | UniProt Q96DF8 | 0.939 ± 0.091 | 0.982 ± 0.078 | 0.984 ± 0.09 | 1 ± 0.1 | 0.988 ± 0.054 | 1.01 ± 0.068

Later entries:

Row | Target | NP40-soluble protein abundance (concentration: 1mM) | NP40-soluble protein abundance (concentration: 2mM) | NP40-soluble protein abundance (concentration: 4mM) | NP40-soluble protein abundance (concentration: 6mM) | NP40-soluble protein abundance (concentration: 8mM) | NP40-soluble protein abundance (concentration: 10mM)
19 | PPP1R10 (UniProt Q96QC0) | 0.981 ± 0.018 | 0.997 ± 0.021 | 1.04 ± 0.038 | 1.11 ± 0.026 | 1.067 ± 0.0049 | 1.1 ± 0.016
20 | MMAB (UniProt Q96EY8) | 0.991 ± 0.033 | 1 ± 0.05 | 1 ± 0.035 | 1.02 ± 0.037 | 0.9644 ± 0.0066 | 0.932 ± 0.034
21 | UniProt Q96K76-4 | 1 ± 0.043 | 1.01 ± 0.071 | 0.987 ± 0.068 | 0.97 ± 0.074 | 0.988 ± 0.056 | 0.964 ± 0.049
22 | SNRNP40 (UniProt Q96DI7) | 1.13 ± 0.019 | 1.17 ± 0.08 | 1.28 ± 0.069 | 1.35 ± 0.089 | 1.48 ± 0.13 | 1.57 ± 0.12
23 | UniProt Q96PU8 and related entries | 0.969 ± 0.074 | 0.956 ± 0.041 | 0.999 ± 0.017 | 0.975 ± 0.061 | 0.984 ± 0.018 | 0.934 ± 0.067
24 | UniProt Q96EA4 and related entries | 0.921 ± 0.084 | 0.909 ± 0.077 | 0.923 ± 0.095 | 0.925 ± 0.057 | 0.875 ± 0.047 | 0.903 ± 0.038
25 | UniProt Q96HE7 | 0.933 ± 0.042 | 0.94 ± 0.019 | 0.8866 ± 0.0082 | 0.9 ± 0.076 | 0.886 ± 0.031 | 0.912 ± 0.039
26 | UniProt Q96IG2 and related entries | 0.988 ± 0.092 | 0.985 ± 0.066 | 0.995 ± 0.043 | 0.954 ± 0.072 | 0.983 ± 0.021 | 1.01 ± 0.058
27 | VCPIP1 (UniProt Q96JH7) | 1.03 ± 0.07 | 0.996 ± 0.045 | 1 ± 0.088 | 1.02 ± 0.072 | 1.01 ± 0.069 | 0.987 ± 0.037
28 | KCTD12 (UniProt Q96CX2) | 0.932 ± 0.01 | 0.932 ± 0.013 | 0.968 ± 0.074 | 0.925 ± 0.019 | 0.901 ± 0.072 | 0.92 ± 0.017
29 | UniProt Q96D53 | 1.3 ± 0.23 | 1.22 ± 0.21 | 1.24 ± 0.28 | 1.26 ± 0.25 | 1.29 ± 0.19 | 1.25 ± 0.21
30 | MARS2 (UniProt Q96GW9) | 0.985 ± 0.097 | 0.998 ± 0.078 | 0.99 ± 0.1 | 0.966 ± 0.098 | 0.983 ± 0.088 | 0.982 ± 0.084
31 | UniProt Q96GM5 and related entries | 1.06 ± 0.033 | 1.05 ± 0.026 | 1.056 ± 0.0072 | 1.03 ± 0.016 | 1.07 ± 0.017 | 1.04 ± 0.036
32 | DUS3L (UniProt Q96G46) | 1.024 ± 0.007 | 1.022 ± 0.0065 | 1.03 ± 0.021 | 1.06 ± 0.041 | 1.03 ± 0.046 | 1 ± 0.03
33 | UniProt Q96EU6 and related entries | 0.97 ± 0.011 | 0.978 ± 0.016 | 1.05 ± 0.096 | 1.06 ± 0.049 | 1.03 ± 0.1 | 1.03 ± 0.016
34 | UniProt Q96JC1 and related entries | 0.965 ± 0.16 | 0.986 ± 0.084 | 1.04 ± 0.087 | 0.887 ± 0.13 | 0.971 ± 0.11 | 1.03 ± 0.043
35 | CDKN2AIPNL (UniProt Q96HQ2) | 0.909 ± 0.022 | 0.922 ± 0.099 | 0.951 ± 0.071 | 0.972 ± 0.068 | 0.8968 ± 0.0022 | 0.859 ± 0.16
